No constants are given. Whether binding was seen depends on the method and setting. In cells and extracts the contact can be indirect. A result given as binding can be weak or reduced; the word gives no strength. Where a sequence is shown, tags or fusion partners need not be part of it.
Target: T1, Myc-tagged recombinant TRIM18 (UniProt O15344)
T1 sequence: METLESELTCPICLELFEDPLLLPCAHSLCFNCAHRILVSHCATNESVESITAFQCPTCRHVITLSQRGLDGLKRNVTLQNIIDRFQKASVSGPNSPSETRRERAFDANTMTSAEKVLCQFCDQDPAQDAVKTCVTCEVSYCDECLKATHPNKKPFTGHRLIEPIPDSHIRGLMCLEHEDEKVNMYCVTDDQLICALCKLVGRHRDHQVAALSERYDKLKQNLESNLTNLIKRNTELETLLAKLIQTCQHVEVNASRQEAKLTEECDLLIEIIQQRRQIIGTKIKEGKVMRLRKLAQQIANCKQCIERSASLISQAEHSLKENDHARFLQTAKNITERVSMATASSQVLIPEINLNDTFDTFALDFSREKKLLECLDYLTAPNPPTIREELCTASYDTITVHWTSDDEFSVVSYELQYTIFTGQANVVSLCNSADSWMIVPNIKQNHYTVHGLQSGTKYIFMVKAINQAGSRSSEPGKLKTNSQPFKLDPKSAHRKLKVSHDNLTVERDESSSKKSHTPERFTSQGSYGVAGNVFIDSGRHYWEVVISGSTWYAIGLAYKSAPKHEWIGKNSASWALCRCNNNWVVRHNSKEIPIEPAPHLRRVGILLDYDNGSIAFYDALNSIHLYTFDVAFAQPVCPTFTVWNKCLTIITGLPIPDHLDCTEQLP
Experiment: co-IP; in vitro: purified HA-tagged protein (full-length or truncation) incubated 2 h with purified Myc-tagged partner, beads added for 2 h, immunoprecipitation with anti-Myc, immunoblot with anti-HA or anti-Myc; both purified

- binding: binds
Substance: HA-tagged M1 catalytic domain of PPM1A (domain or fragment)
